The whole screen tested about 320,000 compounds, of which about 2,100 (0.66%) were called active. The shares of active, inactive and inconclusive entries below differ from those in the screen. The call rests on the fitted dose curve; in most records, active means well fitted inhibition curve with a large enough effect in the signal ratio, with a control signal flat (not every such curve was filed as active); inconclusive means small, poorly fitted or top-dose-only effect, or effect the other way, or a change in a side signal; inactive means flat fitted curve, though single readings scatter; the % refers to the signal ratio. A potency beside an inconclusive call is a rough fit, not a confirmed value.
Test: qHTS Assay for Lipid Storage Modulators in Drosophila S3 Cells
Details: BODIPY lipid droplet fluorescence, 18-24 h, cells fed with added oleic acid; lipid storage change, negative = inhibition: at 46.1 µM (top of the series) unless noted
Method in brief: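 Drosophila S3 cells loaded with oleic acid (400 uM, as added) and compounds at several concentrations; lipid droplets imaged by 488-nm laser-scanning cytometry, 500–530 nm intensity and object ratio to cell channel. Percent activity normalized to 20 uM Triacsin C.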
On the % scale 0 is the no-effect control and ±100 the full control effect; potency means the concentration at half of the fitted maximal effect.

**Q.** With `CCN(CC)CCNc1ncnc2c1sc1nc(N3CCOCC3)c3c(c12)CCCC3` as the compound, how does the lipid storage change, negative = inhibition read?
**A.** inconclusive: -29.3%

**Q.** For `NC(=O)c1ccccc1OCc1nnc(-c2ccccc2Br)o1`, which Potency is on record?
**A.** inconclusive: 0.058 µM [activator, full curve, poor fit]

**Q.** Which Potency does the source give for `C/C(=N\NC(=O)c1cc(-c2ccco2)nc2ccccc12)c1cccnc1` here?
**A.** inconclusive: 0.103 µM [rising, partial curve, poor fit]

**Q.** With `Cc1ccc(NC(=O)Cc2n[nH]c(=S)n2C)cc1` as the compound, how does the lipid storage change, negative = inhibition read?
**A.** inconclusive: -16%

**Q.** For `Cc1cc(CNC(=O)C2CCC(=O)N(Cc3ccccc3F)C2)nn1C` (centres undefined), which Potency is on record?
**A.** inconclusive: 6.51 µM [activator, single point]

**Q.** With `Cc1ncc(CO)c(/C=N/NC(=S)Nc2ccc(F)cc2)c1O` as the compound, how does the Potency read?
**A.** inconclusive: 32.6 µM [falling, single point]

**Q.** Which Potency does the source give for `COc1ccccc1N1CC(C(=O)OCC(=O)Nc2c(C)cccc2C)CC1=O` (centres undefined) here?
**A.** inconclusive: 5.8 µM [activator, full curve]

**Q.** With `Cc1cc(C)cc(N(CC(=O)NCc2ccc3c(c2)OCO3)C(=O)CCC(=O)Nc2ccccn2)c1` as the compound, how does the Potency read?
**A.** inconclusive: 2.91 µM [activator, partial curve]

**Q.** Which lipid storage change, negative = inhibition does the source give for `CC(OC(=O)c1ccc([N+](=O)[O-])o1)C(=O)Nc1nc(-c2ccc(F)c(F)c2)cs1` (centres undefined) here?
**A.** inconclusive

**Q.** With `CCOC(=O)CN1C(=O)S/C(=C/c2ccc3c(c2)n(C)c(=O)n3C)C1=O` as the compound, how does the Potency read?
**A.** inconclusive: 0.13 µM [falling, full curve, poor fit]

**Q.** Which lipid storage change, negative = inhibition does the source give for `O=C(Nc1cccc(-c2csc(Nc3cccc(C(F)(F)F)c3)n2)c1)c1ccccc1` here?
**A.** inconclusive: -0.413%

**Q.** For `CCOC(=O)C1(C(C)(C)CC)CC(CSc2nc3ccccc3[nH]2)OC1=O` (centres undefined), which Potency is on record?
**A.** inconclusive: 29.1 µM [falling, single point]

**Q.** Which lipid storage change, negative = inhibition does the source give for `Cc1ccc(C(=O)NC(=S)NCCN2CCOCC2)cc1` here?
**A.** inconclusive: 24.4%

**Q.** For `Cn1cc(Cl)c(-c2n[nH]c(=S)n2-c2ccccc2)n1`, which lipid storage change, negative = inhibition is on record?
**A.** inconclusive: 0.337%

**Q.** With `COc1ccc(-c2cn(-c3ccc(C)cc3C)c(=O)[nH]2)cc1OC` as the compound, how does the lipid storage change, negative = inhibition read?
**A.** inconclusive: -5.5%

**Q.** With `O=C(NCc1cccc(Cl)c1)c1cccc(C(F)(F)F)c1` as the compound, how does the “lipid storage change, negative = inhibition” value read?
**A.** inactive: 11.6%

**Q.** Which lipid storage change, negative = inhibition does the source give for `CCc1ccc(N2CC(C(=O)Nc3cc(C)on3)CC2=O)cc1` (centres undefined) here?
**A.** inconclusive: 19.7%

**Q.** With `CC1=C(C#N)C(C(F)(F)F)(C(F)(F)F)N=C(c2ccco2)N1` as the compound, how does the lipid storage change, negative = inhibition read?
**A.** inconclusive: 27%

**Q.** For `COC(=O)CCC(=O)OC1(C)C(=O)C2=CN(CCN3CCOCC3)C(c3ccc(OC)cc3)=CC2=C(Br)C1=O` (centres undefined), which lipid storage change, negative = inhibition is on record?
**A.** inconclusive: 5.12%

**Q.** With `Cc1ccc(C(=O)NNC(=O)c2cccc(S(=O)(=O)N3CCN(c4ccccc4)CC3)c2)cc1` as the compound, how does the lipid storage change, negative = inhibition read?
**A.** inconclusive: -19.4%

**Q.** Which lipid storage change, negative = inhibition does the source give for `O=C1C=C(c2ccc(CO)cc2)C[C@@H](c2ccc3c(c2)OCO3)C1` here?
**A.** inconclusive: 65.9%

**Q.** With `COc1ccc(NC(=O)CSCC(=O)Oc2c(OC)cccc2OC)cc1` as the compound, how does the lipid storage change, negative = inhibition read?
**A.** inconclusive

**Q.** Which “lipid storage change, negative = inhibition” value does the source give for `Cn1c(-c2ccccn2)[n+](C)c2ccccc21` here?
**A.** inactive: -16.5%

**Q.** With `O=C(NCCCn1ccnc1)c1cc(-c2ccc(Cl)cc2)nc2ccccc12` as the compound, how does the lipid storage change, negative = inhibition read?
**A.** inconclusive: 10.5%

**Q.** For `COc1ccccc1C(=O)Nc1nnc(S(=O)(=O)N2CCCCC2)s1`, which lipid storage change, negative = inhibition is on record?
**A.** inconclusive: 3.96%

**Q.** Which Potency does the source give for `O=C(NCC1CCCO1)c1cccc(N2C(=O)C3C4C=CC(C4)C3C2=O)c1` (centres undefined) here?
**A.** inconclusive: 0.651 µM [cytotoxic, single point]

**Q.** Which lipid storage change, negative = inhibition does the source give for `FC(F)Oc1ccc(-c2csc(=Nc3cccnc3)n2CC2CCCO2)cc1` (centres undefined) here?
**A.** inconclusive: -5.15%

**Q.** With `COc1ccc(N2CC(C(=O)Nc3ccccc3C(=O)NCc3ccco3)CC2=O)cc1` (centres undefined) as the compound, how does the Potency read?
**A.** inconclusive: 0.206 µM [activator, full curve, poor fit]

**Q.** Which lipid storage change, negative = inhibition does the source give for `Cc1ccc[n+](CC(=O)c2ccccc2)c1` here?
**A.** inconclusive: 21%

**Q.** Which lipid storage change, negative = inhibition does the source give for `O=C(NCc1ccccc1F)c1cc(=O)[nH]c2ccccc12` here?
**A.** inconclusive: 17.2%

**Q.** Which lipid storage change, negative = inhibition does the source give for `COc1ccccc1NC(=O)CSc1ncc(CO)n1Cc1ccc(F)cc1` here?
**A.** inconclusive: 327%

**Q.** Which lipid storage change, negative = inhibition does the source give for `COc1ccc(/C=C/C2=Nc3ccccc3NC(C)(C)C2)cc1OC` here?
**A.** inconclusive: -12.6%

**Q.** For `CC(C)(C)c1ccc(C(=O)NC(=S)NNC(=O)COc2ccccc2)cc1`, which lipid storage change, negative = inhibition is on record?
**A.** inconclusive: -92.5%

**Q.** For `Cc1occc1C(=O)NC(C)C(C)(C)C` (centres undefined), which Potency is on record?
**A.** inconclusive: 25.9 µM [falling, single point]

**Q.** For `CCOCCCn1c(SCc2nc3ccccc3s2)nc2ccccc2c1=O`, which Potency is on record?
**A.** active: 3.66 µM

**Q.** For `O=C(COc1ccc(Cl)cc1)NCc1ccccc1`, which lipid storage change, negative = inhibition is on record?
**A.** inconclusive: 22.5%

**Q.** For `COc1ccc(NC(=O)c2cc3ccccc3[nH]2)cc1`, which lipid storage change, negative = inhibition is on record?
**A.** inconclusive: 19.6%

**Q.** Which Potency does the source give for `CN(c1ccccc1)S(=O)(=O)c1ccc(NC(=O)C2CC2)cc1` here?
**A.** inconclusive: 29.1 µM [falling, single point]

**Q.** For `Nc1ccn(CC(=O)NCc2ccccc2)c(=O)n1`, which lipid storage change, negative = inhibition is on record?
**A.** inconclusive: 43.7%

**Q.** For `CNC(=O)c1c(C)noc1C`, which Potency is on record?
**A.** inconclusive: 0.731 µM [falling, full curve]

**Q.** Which lipid storage change, negative = inhibition does the source give for `COc1ccccc1-c1nnc2n1N=C(c1ccc(O)c(O)c1)CS2` here?
**A.** inconclusive: 37.9%

**Q.** With `Cc1nnc(Nc2ccc(C(=O)N3CCOCC3)cc2)c2ccccc12` as the compound, how does the lipid storage change, negative = inhibition read?
**A.** inconclusive: 20.6%

**Q.** Which lipid storage change, negative = inhibition does the source give for `O=C(Cc1ccccc1)NN1C(=O)/C(=C/c2ccc(C(=O)O)cc2)SC1=S` here?
**A.** inconclusive: -3.05%

**Q.** Which Potency does the source give for `COc1ccc(C(=O)CNc2ccccc2Br)cc1` here?
**A.** inconclusive: 29.1 µM [falling, single point]

**Q.** With `O=C(N/N=C/c1c(F)c(F)c(F)c(F)c1F)c1ccc(Cn2cc(Br)cn2)o1` as the compound, how does the Potency read?
**A.** inconclusive: 14.6 µM [cytotoxic, partial curve]

**Q.** For `O=C(NC12CC3CC(CC(C3)C1)C2)c1ccco1`, which Potency is on record?
**A.** inconclusive: 5.8 µM [falling, partial curve, poor fit]

**Q.** With `Cc1noc(C)c1CSc1nnc(-c2ccccc2)n1N` as the compound, how does the Potency read?
**A.** inconclusive: 18.4 µM [falling, partial curve]

**Q.** With `CC(=O)Nc1ccc(S(=O)(=O)Nc2nc3ccccc3nc2Nc2ccc(O)cc2)cc1` as the compound, how does the Potency read?
**A.** inconclusive: 0.0058 µM [falling, full curve, poor fit]

**Q.** For `COc1cccc2cc(C(=O)NCc3ccc(F)cc3)c(=N)oc12`, which lipid storage change, negative = inhibition is on record?
**A.** inconclusive: -30.4%

Reference: PubChem BioAssay AID2685 (National Center for Advancing Translational Sciences (NCATS), 2010)
